# These are yes or no findings as the source states them, for the method shown. Some entries that bind do so weakly or less than the wild type.
# T1: Cdh1-ΔN200 (S. cerevisiae) (UniProt P53197)
# T1 sequence: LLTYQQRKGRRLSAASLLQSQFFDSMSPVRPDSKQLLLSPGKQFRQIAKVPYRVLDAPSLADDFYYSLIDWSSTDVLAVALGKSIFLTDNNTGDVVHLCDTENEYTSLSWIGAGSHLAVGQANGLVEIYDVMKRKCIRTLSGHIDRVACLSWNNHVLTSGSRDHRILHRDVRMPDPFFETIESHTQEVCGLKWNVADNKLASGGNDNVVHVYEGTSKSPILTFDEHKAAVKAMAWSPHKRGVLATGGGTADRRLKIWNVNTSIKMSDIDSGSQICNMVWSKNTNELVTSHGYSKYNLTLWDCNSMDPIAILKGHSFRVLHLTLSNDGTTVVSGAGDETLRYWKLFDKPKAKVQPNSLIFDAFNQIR
# Target: T1, Cdh1-ΔN200 (S. cerevisiae)
# Assay: two-hybrid; pJ69-4a strains with bait plasmids mated with pJ69-4α strains with activation domain plasmids; diploids struck onto plates lacking leucine, tryptophan, histidine and adenine; growth indicates interaction
row,binding,Binder
1,binds,"Ybr138C-ΔN200 (domain or fragment, UniProt P38277 201-524) PSLDTKNYELTENTSQDIPPLVLVEDYIPYTQSKSTKKMVSISDLKSKLSKRRDNHIPLRVKNSYSEINKETNRNSFEPNSLTLIPHILRNTEENRDESNNPLDFIKEEIEISDISIPNSIENMVVNLVNIPSSNKSYDDLYLSELNVHSQLRKCVICEKALYEISSRLLNSGYYKEIVCEQCTVRYEEAAKIFENCEFESSMDESNLSSGTFSDLENSAEPFHLSTDVPKKINRHIEDNKIDLKKEISKKKDSFSKELIERLQLQLLENDKSIKHHFNKDAMGSKSMNWFLEARRKLKWKWRINGLLPHFLRNQNSDRLNFQP"
2,binds,"Ybr138C-N270 (domain or fragment, UniProt P38277 1-270) MEKDQIQPRVLESVDTNSLSLLSSNTSSNMNSNTNNKLSIIASDISTGSVLSRPLTPPVVQDIENNSMLQWQFEKKEFIFDSNSTPSKQAKPLQRNSPYQGNSQSENQNQQLLNVRKRRSQLIGAKPKIPSKLYQSVSKLDLIDDKSFTSLPIAPPCNIETNEDDSGNNEYNNNKKRPRLNPVNELRVHNNKRNRYVSYGPSLDTKNYELTENTSQDIPPLVLVEDYIPYTQSKSTKKMVSISDLKSKLSKRRDNHIPLRVKNSYSEINK"
3,binds,"Ybr138C (two-hybrid prey) (protein, UniProt P38277 1-524) MEKDQIQPRVLESVDTNSLSLLSSNTSSNMNSNTNNKLSIIASDISTGSVLSRPLTPPVVQDIENNSMLQWQFEKKEFIFDSNSTPSKQAKPLQRNSPYQGNSQSENQNQQLLNVRKRRSQLIGAKPKIPSKLYQSVSKLDLIDDKSFTSLPIAPPCNIETNEDDSGNNEYNNNKKRPRLNPVNELRVHNNKRNRYVSYGPSLDTKNYELTENTSQDIPPLVLVEDYIPYTQSKSTKKMVSISDLKSKLSKRRDNHIPLRVKNSYSEINKETNRNSFEPNSLTLIPHILRNTEENRDESNNPLDFIKEEIEISDISIPNSIENMVVNLVNIPSSNKSYDDLYLSELNVHSQLRKCVICEKALYEISSRLLNSGYYKEIVCEQCTVRYEEAAKIFENCEFESSMDESNLSSGTFSDLENSAEPFHLSTDVPKKINRHIEDNKIDLKKEISKKKDSFSKELIERLQLQLLENDKSIKHHFNKDAMGSKSMNWFLEARRKLKWKWRINGLLPHFLRNQNSDRLNFQP"

# The remaining lines, values behind:
row,Binder,binding
1,"Tos4-N267 (domain or fragment, UniProt Q06266 1-267) MSSQFPSSPYRTVDPYSPPNYKQQPNCPSSNYEKAGKTASESIGNFGKGDYPTPFPSSSIGRVSSPVRSNKVDAIPSSPAFPGQLAETSPKFSSKLSSPSRHTRVINAELDPSKISTITVGRNSSQCDVALCKNKFISRVHASITYLPQTNEVKIHCFSMNGLIVTYRKQFDCYQLKDTMNNNNRAYRLVPRFSNEKCVKEIQDEGGFINFTLEEGDTVYMTYYKGIMLDFRQVLLRISLKEKNSSSEPLRFEKKAEFESESETKHM",no binding
2,"Acm1 (protein, UniProt Q08981 1-209) MISPSKKRTILSSKNINQKPRAVVKGNELRSPSKRRSQIDTDYALRRSPIKTIQISKAAQFMLYEETAEERNIAVHRHNEIYNNNNSVSNENNPSQVKENLSPAKICPYERAFLREGGRIALKDLSVDEFKGYIQDPLTDETIPLTLPLGDKKISLPSFITPPRNSKISIFFTSKHQGQNPETKISRSTDDVSEKKVVRKLSFHVYEDE",binds
3,"Pdr3 411-976 (two-hybrid library clone) (domain or fragment, UniProt P33200 411-976) LCYAYYNVTLYHMLDINTLDYLEILVSLLEIQNEIDERFGFEKMLEVAVTCSTKMGLSRWEYYVGIDENTAERRRKIWWKIYSLEKRFLTDLGDLSLINEHQMNCLLPKDFRDMGFINHKEFLTKIGTSSLSPSSPKLKNLSLSRLIEYGELAIAQIVGDFFSETLYNEKFTSLEVSVKPTIIRQKLLEKVFEDIESFRLKLAKIKLHTSRVFQVAHCKYPEYPKNDLIEAAKFVSYHKNTWFSILGAVNNLIARLSEDPEVITEQSMKYANEMFQEWREINQFLIQVDTDFIVWACLDFYELIFFVMASKFYVEDPHITLEDVINTLKVFKRITNIISFFNNNLDEKDYDCQTFREFSRSSSLVAISIRIIFLKYCYAEQIDRAEFIERLKEVEPGLSDLLREFFDTRSFIYRYMLKSVEKSGFHLIIRKMLESDYKFLYRDKLATGNIPDQGNSSQISQLYDSTAPSYNNASASAANSPLKLSSLLNSGEESYTQDASENVPCNLRHQDRSLQQTKRQHSAPSQISANENNIYNLGTLEEFVSSGDLTDLYHTLWNDNTSYPFL",binds
4,"Tos4-C222 (domain or fragment, UniProt Q06266 268-489) GSIRKHPLIFTDTSMDRPKKILKDSNKISIGSDSGVAERMLNHFLNSKSSPLSSVSSVDHEEQTLRQDSLSSDKNPMTMKKPKLNKRVLPSKPKKSVKENLDELSRRNIDVMHLQHILTNHLAFANVQQTPLFQLQQVNSQISELSRDELRSILSDAKCVGVIYRHGKDAAGKPLDEEYFYDLENDDDYERRNLVSSLKGGRTGLRSCRRTHKQYFWKKPAK",binds
5,"Fir1 (two-hybrid prey) (protein, UniProt P40020 1-876) MSLPVTPVKSKVCSTLSIQHEMDHDQCRDVLCPRENLLAINRTNNIESVAIPRQRSSKNKKPHEHTQSQVRFSIPDPNEISQDSPLKIVFPKSGNETERRMSTSSLLMNSHGHLVDMHSKILVDVPKEVWKFHHNRRKKCESRHRKTRSDVRSNTSSSGKEPNHSRSKSLQSIIVDTMNTYRATEVETSINENTSNISQVSPLNLSFDRPPPLTPEKNLYLTPESPLNRYHLPVPLEISLPPYLSPQNKDKKRSSLVYDGDGYSQFQEGNTSSSTESSLEQPSSSYSDEDDSIPYAHHDVSFELNNADADKLLGIDENANVNLKIQRRNLKNPQHIKSKTDRECEEKNTEKNVSLKILSTPNKLIDIPDLEHMKSPPSTGLNGTLKFFQQFEPSEEPTSPTRQVNPESLDKLDMSFKFPSSTTNNNVDKVHENRNSGDTNNEDFLKVDTSPVNQSFESRRQMLIDLQKSPTNNNPRIHKHRRSRSVHNIDDISLNFEATSTPPAPTSAPSIPVEHSNPCTSIEIPKRSPLRFTSSPKTSDIPPEAQSPKNGSFLQEISVPSIQIIPDESISHTREPSPSLIECPEDENEAFSTEVADHSIAIISETKSVPSIEPFKPLSSFNSFGQEIQNKEPTPLNQTPTDLIGKQRNCVNPHSIPFSVLSSNSQSSQSGSSKSSYNSEFSSNTAITDTTSQPSVTINRSTLEHNFIEEKRSIKNLGHGPPSQKNNYSFPRNKNTPSNRHDLDFNTIYEKRDGKMVEVILLDEDEDVGLKNNDISRTRVCHAQKAKNEQQKKRLSHCNEILGMCDKTADDAKRIIYQLVNEKHKFSEKGQQTKPKKSRVLPPLPFPLYDEKGNSLIPNKYQSSIHNDIPSHRKLK",binds
6,"Tos4 (two-hybrid prey, entire open reading frame) (protein, UniProt Q06266 1-489) MSSQFPSSPYRTVDPYSPPNYKQQPNCPSSNYEKAGKTASESIGNFGKGDYPTPFPSSSIGRVSSPVRSNKVDAIPSSPAFPGQLAETSPKFSSKLSSPSRHTRVINAELDPSKISTITVGRNSSQCDVALCKNKFISRVHASITYLPQTNEVKIHCFSMNGLIVTYRKQFDCYQLKDTMNNNNRAYRLVPRFSNEKCVKEIQDEGGFINFTLEEGDTVYMTYYKGIMLDFRQVLLRISLKEKNSSSEPLRFEKKAEFESESETKHMGSIRKHPLIFTDTSMDRPKKILKDSNKISIGSDSGVAERMLNHFLNSKSSPLSSVSSVDHEEQTLRQDSLSSDKNPMTMKKPKLNKRVLPSKPKKSVKENLDELSRRNIDVMHLQHILTNHLAFANVQQTPLFQLQQVNSQISELSRDELRSILSDAKCVGVIYRHGKDAAGKPLDEEYFYDLENDDDYERRNLVSSLKGGRTGLRSCRRTHKQYFWKKPAK",binds
7,"Fir1-N200 (domain or fragment, UniProt P40020 1-200) MSLPVTPVKSKVCSTLSIQHEMDHDQCRDVLCPRENLLAINRTNNIESVAIPRQRSSKNKKPHEHTQSQVRFSIPDPNEISQDSPLKIVFPKSGNETERRMSTSSLLMNSHGHLVDMHSKILVDVPKEVWKFHHNRRKKCESRHRKTRSDVRSNTSSSGKEPNHSRSKSLQSIIVDTMNTYRATEVETSINENTSNISQV",binds
8,"Tos4-C222-mut.5 (domain or fragment, UniProt Q06266 268-489) GSIRKHPLIFTDTSMDRPKKILKDSNKISIGSDSGVAERMLNHFLNSKSSPLSSVSSVDHEEQTLRQDSLSSDKNPMTMKKPKLNKRVLPSKPKKSVAAALDELSRRNIDVMHLQHILTNHLAFANVQQTPLFQLQQVNSQISELSADEAASIASDAKCVGVIYRHGKDAAGKPLDEEYFYDLENDDDYEARNAVSSLKGGATGARSCRRTHKQYFWKKPAK",binds weakly
9,"Tos4-ΔC125 (domain or fragment, UniProt Q06266 1-364) MSSQFPSSPYRTVDPYSPPNYKQQPNCPSSNYEKAGKTASESIGNFGKGDYPTPFPSSSIGRVSSPVRSNKVDAIPSSPAFPGQLAETSPKFSSKLSSPSRHTRVINAELDPSKISTITVGRNSSQCDVALCKNKFISRVHASITYLPQTNEVKIHCFSMNGLIVTYRKQFDCYQLKDTMNNNNRAYRLVPRFSNEKCVKEIQDEGGFINFTLEEGDTVYMTYYKGIMLDFRQVLLRISLKEKNSSSEPLRFEKKAEFESESETKHMGSIRKHPLIFTDTSMDRPKKILKDSNKISIGSDSGVAERMLNHFLNSKSSPLSSVSSVDHEEQTLRQDSLSSDKNPMTMKKPKLNKRVLPSKPKKSV",no binding

# Target: T1, Cdh1-ΔN200 (S. cerevisiae)
# Assay: two-hybrid; data not shown; D-box mutants of Ybr138C with Cdh1
row,binding,Binder
1,binds,"Ybr138C with the putative D-box 462RLQL mutated (protein, UniProt P38277 1-524) MEKDQIQPRVLESVDTNSLSLLSSNTSSNMNSNTNNKLSIIASDISTGSVLSRPLTPPVVQDIENNSMLQWQFEKKEFIFDSNSTPSKQAKPLQRNSPYQGNSQSENQNQQLLNVRKRRSQLIGAKPKIPSKLYQSVSKLDLIDDKSFTSLPIAPPCNIETNEDDSGNNEYNNNKKRPRLNPVNELRVHNNKRNRYVSYGPSLDTKNYELTENTSQDIPPLVLVEDYIPYTQSKSTKKMVSISDLKSKLSKRRDNHIPLRVKNSYSEINKETNRNSFEPNSLTLIPHILRNTEENRDESNNPLDFIKEEIEISDISIPNSIENMVVNLVNIPSSNKSYDDLYLSELNVHSQLRKCVICEKALYEISSRLLNSGYYKEIVCEQCTVRYEEAAKIFENCEFESSMDESNLSSGTFSDLENSAEPFHLSTDVPKKINRHIEDNKIDLKKEISKKKDSFSKELIEALQAQLLENDKSIKHHFNKDAMGSKSMNWFLEARRKLKWKWRINGLLPHFLRNQNSDRLNFQP"

# From article PMC3458821
